Assay results reported in patent publication US20160264593A1 (priority 2013, published 2016).
At least one structure is not confirmed: it was looked up by name or label, or the drawing left a doubt.

Tests used:
[1] = test system: U251 human GBM cells; details: 100 ip together with radiation vs radiation alone
Description: The mechanism of potentiation is impairment of multiple steps in a DNA-damage repair process and inhibition of exit from mitosis. […] Mice bearing subcutaneous (sc) xenografts of U251 human GBM cells were treated with compound 100 intraperitoneally together with radiation, each given daily for 5 days×3 courses.

[2] = Radiation dose enhancement by compound 100; details: compound 100 treatment

Structure (SMILES): CN1CCN(C(=O)C2C3CCC(O3)C2C(=O)O)CC1 (centres unmarked) [Compound 100, 3-(4-methylpiperazine-1-carbonyl)-7-oxa-bicyclo[2,2,1]-heptane-2-carboxylic acid]
- recurrence of the remaining 40% of xenografts [1]: two months later
- radiation dose enhancement factor [2]: 1.45
